Measured values reported in article PMC7181697.
No constants are given. Whether binding was seen depends on the method and setting. Some binding calls cover weakened binding; strength is not graded here. For some of these results: Tags and fused reporters may be left off the sequences shown. One block for each substance: values may come before it.

By UniProt entry, the sequences of proteins in these tests, tags left out. Where a name states a change or a piece, a line headed by the entry shows the natural chain unless it says otherwise.
UniProt Q9UI95: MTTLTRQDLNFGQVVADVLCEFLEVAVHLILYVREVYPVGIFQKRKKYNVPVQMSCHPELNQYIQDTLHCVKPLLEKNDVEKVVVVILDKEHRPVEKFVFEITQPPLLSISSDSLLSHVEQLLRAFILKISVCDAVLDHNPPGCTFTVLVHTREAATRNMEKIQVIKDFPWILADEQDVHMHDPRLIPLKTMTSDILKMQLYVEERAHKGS

Tests used:
MBP-SHLD2(1–60) (human) [1] = target: T1, MBP-SHLD2(1–60) (human) (UniProt Q86V20); test: pull-down; 30 μg MBP-SHLD2(1-60) on dextrin beads, 20 μg REV7-SHLD3(1-82) with or without 20 μg REV7 added for 30 min; washed with 20 mM Tris pH 8.0, 500 mM NaCl, 1% glycerol, 0.5 mM TCEP, 0.5% NP-40; SDS-PAGE, Coomassie; both purified
T1 sequence: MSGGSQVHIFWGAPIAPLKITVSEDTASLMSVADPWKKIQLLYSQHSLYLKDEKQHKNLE

REV7^K44A (human) = REV7^K44A (human) (UniProt Q9UI95); test: SEC-MALS; co-expressed and co-purified REV7-SHLD3(1-82) samples; 100 μl at 5 mg/ml, WTC-015S5 column, 20 mM Tris-HCl pH 8.0, 150 mM NaCl, 1% glycerol, 1 mM TCEP, 0.01% NaN3; both purified
REV7^K190A (human) = REV7^K190A (human) (UniProt Q9UI95); test: as above
MBP-SHLD2(1–60) (human) [2] = target: T1, MBP-SHLD2(1–60) (human); test: SEC; Superdex 200 Increase 10/300 GL, 20 mM Tris/HCl pH 8.0, 150 mM NaCl, 1% glycerol, 1 mM TCEP; proteins mixed and incubated 10 min on ice; 0.5 ml fractions on SDS-PAGE, Coomassie; both purified
REV7^K129A (human) = REV7^K129A (human) (UniProt Q9UI95); test: SEC-MALS; co-expressed and co-purified REV7-SHLD3(1-82) samples; 100 μl at 5 mg/ml, WTC-015S5 column, 20 mM Tris-HCl pH 8.0, 150 mM NaCl, 1% glycerol, 1 mM TCEP, 0.01% NaN3; both purified
REV7^E35A (human) = REV7^E35A (human) (UniProt Q9UI95); test: as above
REV7^R124A (human) = REV7^R124A (human) (UniProt Q9UI95); test: as above

- binding (MBP-SHLD2(1–60) (human) [1]): binds weakly
Substance: REV7^K190A-SHLD3(1–82) (from UniProt Q9UI95 1-211; Q6ZNX1 1-82) (complex)

- binding (REV7^K44A (human)): no binding
Substance: REV7^K44A (from UniProt Q9UI95 1-211)

- binding (REV7^K190A (human)): no binding
Substance: REV7^K190A (from UniProt Q9UI95 1-211)

- binding (MBP-SHLD2(1–60) (human) [2]): no binding
- binding (MBP-SHLD2(1–60) (human) [1]): no binding
Substance: REV7^R124A-SHLD3(1–82) (from UniProt Q9UI95 1-211; Q6ZNX1 1-82) (complex)

- binding (REV7^K129A (human)): no binding
Substance: REV7^K129A (from UniProt Q9UI95 1-211)

- binding (REV7^E35A (human)): no binding
Substance: REV7^E35A (from UniProt Q9UI95 1-211)

- binding (MBP-SHLD2(1–60) (human) [1]): binds weakly
Substance: REV7^K44A-SHLD3(1–82) (from UniProt Q9UI95 1-211; Q6ZNX1 1-82) (complex)

- binding (REV7^R124A (human)): no binding
Substance: REV7^R124A (from UniProt Q9UI95 1-211)

- binding (MBP-SHLD2(1–60) (human) [1]): binds weakly
Substance: REV7^K129A-SHLD3(1–82) (from UniProt Q9UI95 1-211; Q6ZNX1 1-82) (complex)
